Patent publication US20130251707A1
Results are given in words; binding and its absence hold for the method and conditions named. Some results given as binding are weak or reduced against the parent protein; the word gives no strength.

Sequences of proteins named here, by UniProt entry; tags and fusion partners are left off. A change or cut given only in a name is not applied to a line headed by its entry.
UniProt P19438: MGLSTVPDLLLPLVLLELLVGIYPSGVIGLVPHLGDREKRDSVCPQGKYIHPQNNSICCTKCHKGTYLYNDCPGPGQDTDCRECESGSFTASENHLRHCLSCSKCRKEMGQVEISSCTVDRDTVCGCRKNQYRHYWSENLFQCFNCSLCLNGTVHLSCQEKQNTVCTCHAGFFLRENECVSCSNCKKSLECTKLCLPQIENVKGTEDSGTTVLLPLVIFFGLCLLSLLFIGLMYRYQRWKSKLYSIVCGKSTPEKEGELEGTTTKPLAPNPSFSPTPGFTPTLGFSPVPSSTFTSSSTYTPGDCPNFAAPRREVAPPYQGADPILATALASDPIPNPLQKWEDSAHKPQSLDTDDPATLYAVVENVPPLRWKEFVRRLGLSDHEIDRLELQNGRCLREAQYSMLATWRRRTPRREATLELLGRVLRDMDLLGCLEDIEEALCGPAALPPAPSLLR
UniProt P25445: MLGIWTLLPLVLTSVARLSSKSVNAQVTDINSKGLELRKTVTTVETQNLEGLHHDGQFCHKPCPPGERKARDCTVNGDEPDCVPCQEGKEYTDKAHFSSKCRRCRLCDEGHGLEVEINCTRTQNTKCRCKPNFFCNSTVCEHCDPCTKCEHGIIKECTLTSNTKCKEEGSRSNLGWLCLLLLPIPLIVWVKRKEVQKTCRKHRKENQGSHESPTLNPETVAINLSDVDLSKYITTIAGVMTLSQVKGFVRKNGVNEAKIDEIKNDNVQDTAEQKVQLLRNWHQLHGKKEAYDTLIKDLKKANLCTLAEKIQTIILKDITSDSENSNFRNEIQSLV

How the values were obtained:
[1] = target: rhesus TNFR1-Fc (rhesus; human); assay: summary of the example's binding assays
[2] = target: rhesus TNFR1-Fc (rhesus; human); assay: quartz crystal microbalance, TNFR1-Fc immobilized
[3] = target: rhesus TNFR1-Fc (rhesus; human); assay: discussion of the example's results
[4] = target: T1, human TNFR1-Fas on transfected mouse embryonic fibroblasts (human) (UniProt P19438+P25445); assay: summary of the example's flow cytometry
[5] = target: rhesus TNFR1-Fc (rhesus; human); assay: species ELISA on coated TNFR1-Fc (FIG. 3b)
[6] = target: T1, human TNFR1-Fas on transfected mouse embryonic fibroblasts (human); assay: flow cytometry on transfected MEF cells (FIG. 2a,b)

Measured: binding

B1: ATROSAB (antibody, human IgG1, kappa, V domains shown)
VH: QVQLVQSGAEVKKPGSSVKVSCKASGYTFTDFYINWVRQAPGQGLEWIGEIYPYSGHAYYNEKFKARVTITADKSTSTAYMELSSLRSEDTAVYYCARWDFLDYWGQGTTVTVSS
VL: DIVMTQSPLSLPVTPGEPASISCRSSQSLLHSNGNTYLHWYLQKPGQSPQLLIYTVSNRFSGVPDRFSGSGSGTDFTLKISRVEAEDVGVYYCSQSTHVPYTFGGGTKVEIKR
binds: all assays above
